Data on 1 compound can be found in US20250376461A1, “INDAZOLE DERIVATIVES FOR TREATING TRPM3-MEDIATED DISORDERS” (Katholieke Universiteit Leuven, priority 2022, published 2025).

Protein sequences, listed by entry. Tags and fused reporters are not part of them. Residues count along the entry.
UniProt J9SQF3, 1-1709 isoform 12: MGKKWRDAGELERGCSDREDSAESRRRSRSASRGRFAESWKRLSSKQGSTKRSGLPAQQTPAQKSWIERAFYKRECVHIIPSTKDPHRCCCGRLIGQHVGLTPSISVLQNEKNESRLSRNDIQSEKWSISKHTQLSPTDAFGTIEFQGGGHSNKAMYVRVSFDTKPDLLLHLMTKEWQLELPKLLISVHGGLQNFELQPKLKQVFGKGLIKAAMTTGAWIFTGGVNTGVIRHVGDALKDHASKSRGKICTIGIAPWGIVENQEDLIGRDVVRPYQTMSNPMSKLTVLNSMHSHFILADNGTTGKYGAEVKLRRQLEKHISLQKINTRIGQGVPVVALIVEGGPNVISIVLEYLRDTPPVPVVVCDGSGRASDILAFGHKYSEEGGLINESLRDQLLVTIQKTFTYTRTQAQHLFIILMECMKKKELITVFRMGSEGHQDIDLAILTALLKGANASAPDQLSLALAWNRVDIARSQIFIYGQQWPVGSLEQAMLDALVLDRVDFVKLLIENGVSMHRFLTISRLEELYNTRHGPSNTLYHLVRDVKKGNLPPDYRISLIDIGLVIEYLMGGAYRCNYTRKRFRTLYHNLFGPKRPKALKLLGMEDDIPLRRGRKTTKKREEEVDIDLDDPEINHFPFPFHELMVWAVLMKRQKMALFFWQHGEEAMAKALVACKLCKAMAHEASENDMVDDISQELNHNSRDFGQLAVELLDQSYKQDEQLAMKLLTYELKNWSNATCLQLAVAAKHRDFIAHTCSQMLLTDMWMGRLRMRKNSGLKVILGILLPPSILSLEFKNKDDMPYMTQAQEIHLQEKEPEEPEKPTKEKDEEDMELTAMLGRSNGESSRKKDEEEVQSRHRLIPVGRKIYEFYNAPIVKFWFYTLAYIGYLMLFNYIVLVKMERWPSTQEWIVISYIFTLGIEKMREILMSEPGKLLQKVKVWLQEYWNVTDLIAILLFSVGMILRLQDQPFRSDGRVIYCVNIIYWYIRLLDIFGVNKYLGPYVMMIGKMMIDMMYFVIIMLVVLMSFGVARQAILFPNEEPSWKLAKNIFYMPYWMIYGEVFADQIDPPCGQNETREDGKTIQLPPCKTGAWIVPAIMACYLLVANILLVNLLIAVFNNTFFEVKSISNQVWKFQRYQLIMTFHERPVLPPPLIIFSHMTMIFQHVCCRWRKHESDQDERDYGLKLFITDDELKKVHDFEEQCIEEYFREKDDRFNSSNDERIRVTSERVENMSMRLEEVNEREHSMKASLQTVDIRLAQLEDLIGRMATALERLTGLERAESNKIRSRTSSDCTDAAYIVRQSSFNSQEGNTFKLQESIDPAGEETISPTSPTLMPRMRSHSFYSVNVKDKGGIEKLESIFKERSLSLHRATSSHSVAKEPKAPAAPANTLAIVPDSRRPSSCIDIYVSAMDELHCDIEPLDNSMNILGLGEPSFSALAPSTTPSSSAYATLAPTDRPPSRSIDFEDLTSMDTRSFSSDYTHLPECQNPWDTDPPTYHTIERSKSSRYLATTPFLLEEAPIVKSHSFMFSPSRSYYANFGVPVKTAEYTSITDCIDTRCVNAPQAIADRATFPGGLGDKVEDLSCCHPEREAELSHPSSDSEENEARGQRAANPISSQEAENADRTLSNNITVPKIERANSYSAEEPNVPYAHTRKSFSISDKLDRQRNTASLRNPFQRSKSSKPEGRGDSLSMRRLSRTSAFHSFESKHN

The test deals with mouse TRPM3α2 (mTRPM3) ion channel (Mus musculus, UniProt J9SQF3). Kind of test: TRPM3 ion channel driven Ca2+ uptake, Fluo-4 AM assay, mTRPM3alpha2 overexpressing flip-in HEK293 cells stimulated with pregnenolone sulfate (50 μM). As to conditions: mTRPM3 overexpressing HEK293 cells stimulated with pregnenolone sulfate (50 μM), activity ranges A, B, C. On the procedure: Monitoring the TRPM3 Ion Channel Driven Ca2+ Uptake.
In order to monitor the inhibition of the mouse TRPM3α2 (mTRPM3) ion channel by the compounds of the invention, a cellular system making use of an mTRPM3alpha2 or hTRPM3 overexpressing cell line (flip-in HEK293) was used. The TRPM3 channel was stimulated/opened with Pregnenolone sulfate (PS) (50 μM) which results in Ca^2+ influx.
For mTRPM3, the intracellular Ca^2+ was measured with a Calcium responsive dye, Fluor-4 AM ester (Invitrogen). Cells were cultured until a confluence of 80-90%, washed with Versene (Invitrogen) and detached from the surface by a short incubation with 0.05% Trypsin (Invitrogen). The trypsination process was stopped by the addition of complete cell culture medium (DMEM, glutamax, 10% FCS, NEAA, Pen-Strep). Cells were collected and resuspended in Krebs buffer without Calcium at RT.
Prior the cell seeding (±2000 cells/well into a black, 384 well plate (Greiner)) the diluted compound was added in the assay plate, together with the PS dissolved in Krebs buffer containing Calcium. […] Directly after cell addition the plates were read on an Envision fluorescence reader (Perkin Elmer) by an Excitation of 485 nm and emission at 535 nm.
Channel inhibition was calculated compared to a non-PS stimulated control versus a condition stimulated with PS (50 μM) with vehicle. […]

Structures were worked out from names or drawings and are uncertain. A value given as a limit tells only on which side of the number the result lay.

`Cn1nc2ccc(OCc3cccnc3C(F)(F)F)cc2c1C(=O)NC(C)(CO)C(N)=O` (single isomer, unassigned): the IC50 was less than 1 µM.
